Assay results: the supplement of paper PMC8728848
Some of the results follow.

Key:
Assay in all cases: glycan array binding signal (z-score within array); higher = stronger binding
Settings in all cases: glycan notation: IUPAC condensed, linker removed
Gal(a1-6)Glc = target: Gal(a1-6)Glc
How it was run: (§1)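 The binding signal is a Z-score computed within each array. Data were drawn from 3228 arrays in the Consortium for Functional Glycomics database, restricted to those with a known protein sequence. Scores were averaged over arrays of the same protein sequence at different concentrations or buffers, and over linkers, and negative values can be taken as non-binding.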

Gal(b1-2)Gal = target: Gal(b1-2)Gal
How it was run: as §1

Gal(b1-3)Gal = target: Gal(b1-3)Gal
How it was run: as §1

Gal(b1-3)Gal(b1-4)GlcNAc = target: Gal(b1-3)Gal(b1-4)GlcNAc
How it was run: as §1

Gal(b1-3)GalNAc = target: Gal(b1-3)GalNAc
How it was run: as §1

[1] = target: Gal(b1-3)GalNAc(a1-3)[Fuc(a1-2)]Gal(b1-4)Glc
How it was run: as §1

[2] = target: Gal(b1-3)GalNAc(a1-3)[Fuc(a1-2)]Gal(b1-4)GlcNAc
How it was run: as §1

Gal(b1-3)GalNAc(b1-3)Gal = target: Gal(b1-3)GalNAc(b1-3)Gal
How it was run: as §1

[3] = target: Gal(b1-3)GalNAc(b1-3)Gal(a1-4)Gal(b1-4)Glc
How it was run: as §1

[4] = target: Gal(b1-3)GalNAc(b1-4)Gal(b1-4)Glc
How it was run: as §1

[5] = target: Gal(b1-3)GalNAc(b1-4)[Neu5Ac(a2-3)]Gal(b1-4)Glc
How it was run: as §1

Gal(b1-3)GlcNAc = target: Gal(b1-3)GlcNAc
How it was run: as §1

[6] = target: Gal(b1-3)GlcNAc(a1-3)Gal(b1-4)GlcNAc
How it was run: as §1

[7] = target: Gal(b1-3)GlcNAc(a1-6)Gal(b1-4)GlcNAc
How it was run: as §1

Gal(b1-3)GlcNAc(b1-2)Man = target: Gal(b1-3)GlcNAc(b1-2)Man
How it was run: as §1

[8] = target: Gal(b1-3)GlcNAc(b1-2)Man(a1-3)[Gal(b1-3)GlcNAc(b1-2)Man(a1-6)]Man(b1-4)GlcNAc(b1-4)GlcNAc
How it was run: as §1

[9] = target: Gal(b1-3)GlcNAc(b1-2)Man(a1-3)[Gal(b1-3)GlcNAc(b1-2)Man(a1-6)]Man(b1-4)GlcNAc(b1-4)[Fuc(a1-6)]GlcNAc
How it was run: as §1

[10] = target: Gal(b1-3)GlcNAc(b1-2)Man(a1-3)[GlcNAc(b1-4)][Gal(b1-3)GlcNAc(b1-2)Man(a1-6)]Man(b1-4)GlcNAc(b1-4)GlcNAc
How it was run: as §1

[11] = target: Gal(b1-3)GlcNAc(b1-2)[Gal(b1-3)GlcNAc(b1-6)]Man(a1-6)[Gal(b1-3)GlcNAc(b1-2)Man(a1-3)]Man(b1-4)GlcNAc(b1-4)GlcNAc
How it was run: as §1

[12] = target: Gal(b1-3)GlcNAc(b1-3)Gal(b1-3)GlcNAc
How it was run: as §1

[13] = target: Gal(b1-3)GlcNAc(b1-3)Gal(b1-4)Glc
How it was run: as §1

[14] = target: Gal(b1-3)GlcNAc(b1-3)Gal(b1-4)GlcNAc
How it was run: as §1

[15] = target: Gal(b1-3)GlcNAc(b1-3)Gal(b1-4)GlcNAc(b1-2)Man(a1-3)[Gal(b1-3)GlcNAc(b1-3)Gal(b1-4)GlcNAc(b1-2)Man(a1-6)]Man(b1-4)GlcNAc(b1-4)GlcNAc
How it was run: as §1

[16] = target: Gal(b1-3)GlcNAc(b1-3)Gal(b1-4)GlcNAc(b1-2)[Gal(b1-3)GlcNAc(b1-3)Gal(b1-4)GlcNAc(b1-6)]Man(a1-6)[Gal(b1-3)GlcNAc(b1-3)Gal(b1-4)GlcNAc(b1-2)Man(a1-3)]Man(b1-4)GlcNAc(b1-4)[Fuc(a1-6)]GlcNAc
How it was run: as §1

[17] = target: Gal(b1-3)GlcNAc(b1-3)Gal(b1-4)GlcNAc(b1-3)Gal(b1-4)GlcNAc(b1-2)[Gal(b1-3)GlcNAc(b1-3)Gal(b1-4)GlcNAc(b1-3)Gal(b1-4)GlcNAc(b1-6)]Man(a1-6)[Gal(b1-3)GlcNAc(b1-3)Gal(b1-4)GlcNAc(b1-3)Gal(b1-4)GlcNAc(b1-2)Man(a1-3)]Man(b1-4)GlcNAc(b1-4)[Fuc(a1-6)]GlcNAc
How it was run: as §1

[18] = target: Gal(b1-3)GlcNAc(b1-3)Gal(b1-4)GlcNAc(b1-6)[Gal(b1-3)GlcNAc(b1-3)]Gal(b1-4)Glc
How it was run: as §1

[19] = target: Gal(b1-3)GlcNAc(b1-3)Gal(b1-4)[Fuc(a1-3)]GlcNAc
How it was run: as §1

[20] = target: Gal(b1-3)GlcNAc(b1-3)Gal(b1-4)[Fuc(a1-3)]GlcNAc(b1-6)[Gal(b1-3)GlcNAc(b1-3)]Gal(b1-4)Glc
How it was run: as §1

[21] = target: Gal(b1-3)GlcNAc(b1-3)GalNAc
How it was run: as §1

[22] = target: Gal(b1-3)GlcNAc(b1-6)Gal(b1-4)GlcNAc
How it was run: as §1

[23] = target: Gal(b1-3)GlcNAc(b1-6)GalNAc
How it was run: as §1

[24] = target: Gal(b1-3)GlcNAc(b1-6)[Gal(b1-3)]GalNAc
How it was run: as §1

Gal(b1-3)GlcNAc6S = target: Gal(b1-3)GlcNAc6S
How it was run: as §1

[25] = target: Gal(b1-3)[Fuc(a1-4)]GlcNAc
How it was run: as §1

[26] = target: Gal(b1-3)[Fuc(a1-4)]GlcNAc(b1-2)Man
How it was run: as §1

[27] = target: Gal(b1-3)[Fuc(a1-4)]GlcNAc(b1-2)Man(a1-3)[Gal(b1-3)[Fuc(a1-4)]GlcNAc(b1-2)Man(a1-6)]Man(b1-4)GlcNAc(b1-4)[Fuc(a1-6)]GlcNAc
How it was run: as §1

[28] = target: Gal(b1-3)[Fuc(a1-4)]GlcNAc(b1-3)Gal(b1-3)[Fuc(a1-4)]GlcNAc
How it was run: as §1

B1: ERGIC1-EDTA (Homo sapiens), Q969X5 (protein)
chain: MKFLVNVALVFMVVYISYIYAAAHMHHHHHHDYDIPTTENLYFQGSEVVNELYVDDPDKDSGGKIDVSLNISLPNLHCELVGLDIQDEMGRHEVGHIDNSMKIPLNNGAGCRFEGQFSINKVPGNFHVSTHSATAQPQNPDMTHVIHKLSFGDTLQVQNIHGAFNALGGADRLTSNPLASHDYILKIVPTVYEDKSGKQRYSYQYTVANKEYVAYSHTGRIIPAIWFRYDLSPITVKYTE
- glycan array binding signal (z-score) (Gal(a1-6)Glc): 0.061
- glycan array binding signal (z-score) (Gal(b1-2)Gal): -0.135
- glycan array binding signal (z-score) (Gal(b1-3)Gal): 0.934
- glycan array binding signal (z-score) (Gal(b1-3)Gal(b1-4)GlcNAc): -0.609
- glycan array binding signal (z-score) (Gal(b1-3)GalNAc): -0.192
- glycan array binding signal (z-score) [1]: 0.278
- glycan array binding signal (z-score) [2]: -0.819
- glycan array binding signal (z-score) (Gal(b1-3)GalNAc(b1-3)Gal): 0.15
- glycan array binding signal (z-score) [3]: 0.748
- glycan array binding signal (z-score) [4]: -0.657
- glycan array binding signal (z-score) [5]: 0.859
- glycan array binding signal (z-score) (Gal(b1-3)GlcNAc): -0.584
- glycan array binding signal (z-score) [6]: 0.087
- glycan array binding signal (z-score) [7]: -0.267
- glycan array binding signal (z-score) (Gal(b1-3)GlcNAc(b1-2)Man): 0.451
- glycan array binding signal (z-score) [8]: 1.57
- glycan array binding signal (z-score) [9]: 1.25
- glycan array binding signal (z-score) [10]: 0.096
- glycan array binding signal (z-score) [11]: 3.15
- glycan array binding signal (z-score) [12]: -0.44
- glycan array binding signal (z-score) [13]: 0.094
- glycan array binding signal (z-score) [14]: -0.813
- glycan array binding signal (z-score) [15]: -0.057
- glycan array binding signal (z-score) [16]: 0.834
- glycan array binding signal (z-score) [17]: 0.835
- glycan array binding signal (z-score) [18]: 0.878
- glycan array binding signal (z-score) [19]: -0.7
- glycan array binding signal (z-score) [20]: -0.512
- glycan array binding signal (z-score) [21]: -0.22
- glycan array binding signal (z-score) [22]: -0.802
- glycan array binding signal (z-score) [23]: -0.687
- glycan array binding signal (z-score) [24]: -0.358
- glycan array binding signal (z-score) (Gal(b1-3)GlcNAc6S): 0.367
- glycan array binding signal (z-score) [25]: -0.367
- glycan array binding signal (z-score) [26]: 1.04
- glycan array binding signal (z-score) [27]: 0.607
- glycan array binding signal (z-score) [28]: 0.552
